Results reported in patent publication US20010038824A1 (priority 2000, published 2001).
Strings that start with PEPTIDE1 are HELM notation: dots part the residues, brackets hold end groups and non-standard residues.

Test: general procedure: peptide synthesis; BOP reagent, HOBT hydrate, N,N-diisopropylethylamine
Conditions: late stage modification step

Going from N(orn)-Boc-IX to “PEPTIDE1{[3OHC16].[ThrX].[AlaX].[TyrX].[ValX].[4HypX].[ThrX].[ThrX].[3HypX].[3OHGlnX].G.[ThrX].[OrnX(Sar)]}$PEPTIDE1,PEPTIDE1,1:R1-13:R2$$$V2.0”, the step yield falls from 45% yield to 39% yield.

N(val)-Boc-IX gave a step yield of 6% yield.
